From US20250235501A1, “Methods and Compositions for Treating or Preventing Neurological Injury or Neurological Disorders” (University of Connecticut, priority 2024, published 2025)

Assays:
[1] = target: PKCγ over-expressed in HEK293T cells (plasmid Addgene 112266); experiment: co-IP (figure legend of FIGS. 4A-4R)
[2] = target: PKCγ over-expressed in HEK293T cells (plasmid Addgene 112266); experiment: co-IP with anti-TRPM2, probed with anti-PKCγ, HEK293

B1: Flag-TRPM2-NT, N-terminal fragment of TRPM2 (1-727) (protein, not shown: small tags and cut ends)
chain: MEPSALRKAGSEQEEGFEGLPRRVTDLGMVSNLRRSNSSLFKSWRLQCPFGNNDKQESLSSWIPENIKKKECVYFVESSKLSDAGKVVCQCGYTHEQHLEEATKPHTFQGTQWDPKKHVQEMPTDAFGDIVFTGLSQKVKKYVRVSQDTPSSVIYHLMTQHWGLDVPNLLISVTGGAKNFNMKPRLKSIFRRGLVKVAQTTGAWIITGGSHTGVMKQVGEAVRDFSLSSSYKEGELITIGVATWGTVHRREGLIHPTGSFPAEYILDEDGQGNLTCLDSNHSHFILVDDGTHGQYGVEIPLRTRLEKFISEQTKERGGVAIKIPIVCVVLEGGPGTLHTIDNATTNGTPCVVVEGSGRVADVIAQVANLPVSDITISLIQQKLSVFFQEMFETFTESRIVEWTKKIQDIVRRRQLLTVFREGKDGQQDVDVAILQALLKASRSQDHFGHENWDHQLKLAVAWNRVDIARSEIFMDEWQWKPSDLHPTMTAALISNKPEFVKLFLENGVQLKEFVTWDTLLYLYENLDPSCLFHSKLQKVLVEDPERPACAPAAPRLQMHHVAQVLRELLGDFTQPLYPRPRHNDRLRLLLPVPHVKLNVQGVSLRSLYKRSSGHVTFTMDPIRDLLIWAIVQNRRELAGIIWAQSQDCIAAALACSKILKELSKEEEDTDSSEEMLALAEEYEHRAIGVFTECYRKDEERAQKLLTRVSEAWGKTTCLQLALEAKDM
[1]
  binding: binds
[2]
  binding: binds

Results are given in words; binding and its absence hold for the method and conditions named. In cells and extracts the contact can be indirect. A result given as binding can be weak or reduced; the word gives no strength. Tags and fused reporters may be left off the sequences shown.
